Reference: PubChem BioAssay AID1159584 (Peter MacCallum Cancer Centre, 2016)
Assay: 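Knock-downs that harm CDH1-null cells more than parental MCF10A cells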 (primary screen). Cell system: human MCF10A breast epithelial cells, parental and CDH1-null. Reagent: siRNA against human genes. Measurement: 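Cell viability by CellTiter-Glo ATP luminescence, each line scaled to the mean of mock wells across plates, then CDH1-null over parental ratio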. Scale: CDH1-null / parental viability ratio: higher = CDH1-null cells survive relatively better than parental; CDH1-null viability vs mock: higher = more viable CDH1-null cells. Units: CDH1-null viability vs mock in fraction of mock.
Here is a random part of about 18,000 reagents tested. Further read-outs or replicates are left out here. No sequences are given here. The record does not give: the amount of reagent, the time to read-out.

OSGIN1 — CDH1-null / parental viability ratio: 0.97; CDH1-null viability vs mock: 0.7
POLA2 — CDH1-null / parental viability ratio: 0.97; CDH1-null viability vs mock: 0.62
DUOX2 — CDH1-null / parental viability ratio: 0.94; CDH1-null viability vs mock: 0.64
PRSS33 — CDH1-null / parental viability ratio: 1.17; CDH1-null viability vs mock: 0.82
TOP3B — CDH1-null / parental viability ratio: 1.05; CDH1-null viability vs mock: 1.25
TFG — CDH1-null / parental viability ratio: 0.98; CDH1-null viability vs mock: 0.43
HOMER1 — CDH1-null / parental viability ratio: 0.93; CDH1-null viability vs mock: 0.8
CLDN16 — CDH1-null / parental viability ratio: 1.03; CDH1-null viability vs mock: 0.99
AMT — CDH1-null / parental viability ratio: 1.17; CDH1-null viability vs mock: 1.03
CASP7 — CDH1-null / parental viability ratio: 1.15; CDH1-null viability vs mock: 1.08
SH2D3C — CDH1-null / parental viability ratio: 1.04; CDH1-null viability vs mock: 0.5
MANSC1 — CDH1-null / parental viability ratio: 0.89; CDH1-null viability vs mock: 0.89
DECR1 — CDH1-null / parental viability ratio: 0.84; CDH1-null viability vs mock: 0.62

Next part, starting with the last 2 of the part before.
MANSC1 — CDH1-null / parental viability ratio: 0.89; CDH1-null viability vs mock: 0.89
DECR1 — CDH1-null / parental viability ratio: 0.84; CDH1-null viability vs mock: 0.62
CELF6 — CDH1-null / parental viability ratio: 1; CDH1-null viability vs mock: 0.8
PRG2 — CDH1-null / parental viability ratio: 1.06; CDH1-null viability vs mock: 0.76
NINJ1 — CDH1-null / parental viability ratio: 1.03; CDH1-null viability vs mock: 0.4
CNN1 — CDH1-null / parental viability ratio: 1.13; CDH1-null viability vs mock: 0.7
AP4B1 — CDH1-null / parental viability ratio: 1.24; CDH1-null viability vs mock: 1.09
DUSP2 — CDH1-null / parental viability ratio: 1.54; CDH1-null viability vs mock: 0.86
ALPK3 — CDH1-null / parental viability ratio: 0.9; CDH1-null viability vs mock: 0.72
NXN — CDH1-null / parental viability ratio: 1.07; CDH1-null viability vs mock: 0.98
TMBIM4 — CDH1-null / parental viability ratio: 0.77; CDH1-null viability vs mock: 0.62
RPL18 — CDH1-null / parental viability ratio: 2.73; CDH1-null viability vs mock: 0.6
OR8G2P — CDH1-null / parental viability ratio: 0.84; CDH1-null viability vs mock: 0.76
TLCD5 — CDH1-null / parental viability ratio: 0.8; CDH1-null viability vs mock: 0.86
REXO5 — CDH1-null / parental viability ratio: 0.82; CDH1-null viability vs mock: 0.78
CCDC140 — CDH1-null / parental viability ratio: 0.94; CDH1-null viability vs mock: 0.64
TRIM35 — CDH1-null / parental viability ratio: 0.93; CDH1-null viability vs mock: 0.64
ANKRD42 — CDH1-null / parental viability ratio: 1.07; CDH1-null viability vs mock: 0.8
PAG1 — CDH1-null / parental viability ratio: 1.02; CDH1-null viability vs mock: 0.98
RAI2 — CDH1-null / parental viability ratio: 0.79; CDH1-null viability vs mock: 0.74
ATG14 — CDH1-null / parental viability ratio: 1.24; CDH1-null viability vs mock: 1.14
GRAMD4 — CDH1-null / parental viability ratio: 1.18; CDH1-null viability vs mock: 0.98
DNAJC19 — CDH1-null / parental viability ratio: 0.86; CDH1-null viability vs mock: 0.72
SHC3 — CDH1-null / parental viability ratio: 0.94; CDH1-null viability vs mock: 0.98
